Reference: PMC11027350
No constants are given. Whether binding was seen depends on the method and setting. For part of these data: In cells and extracts the contact can be indirect. Some results given as binding are weak or reduced against the parent protein; the word gives no strength. One block for each substance: values may come before it.

Sequences of proteins named here, by UniProt entry; tags and fusion partners are left off.
UniProt P08047: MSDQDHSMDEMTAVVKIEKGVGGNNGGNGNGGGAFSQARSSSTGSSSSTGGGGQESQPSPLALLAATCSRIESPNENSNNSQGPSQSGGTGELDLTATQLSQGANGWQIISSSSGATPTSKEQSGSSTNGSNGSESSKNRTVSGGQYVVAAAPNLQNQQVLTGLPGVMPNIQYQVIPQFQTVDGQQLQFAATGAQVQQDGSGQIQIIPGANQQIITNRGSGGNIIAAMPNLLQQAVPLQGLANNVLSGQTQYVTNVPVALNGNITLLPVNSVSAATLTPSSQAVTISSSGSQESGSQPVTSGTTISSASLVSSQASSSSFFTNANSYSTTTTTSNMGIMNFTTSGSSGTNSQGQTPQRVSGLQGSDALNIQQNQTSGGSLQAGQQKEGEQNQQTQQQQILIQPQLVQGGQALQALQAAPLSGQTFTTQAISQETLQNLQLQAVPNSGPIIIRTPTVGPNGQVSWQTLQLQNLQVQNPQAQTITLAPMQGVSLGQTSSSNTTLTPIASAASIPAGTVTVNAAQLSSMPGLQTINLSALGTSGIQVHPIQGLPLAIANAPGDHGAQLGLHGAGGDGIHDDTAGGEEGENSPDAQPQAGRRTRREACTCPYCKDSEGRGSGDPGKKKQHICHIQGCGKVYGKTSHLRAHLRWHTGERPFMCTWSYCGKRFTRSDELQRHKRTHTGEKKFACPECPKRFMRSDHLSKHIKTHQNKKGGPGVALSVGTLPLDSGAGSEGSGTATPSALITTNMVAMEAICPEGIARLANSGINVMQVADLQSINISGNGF
UniProt Q92831: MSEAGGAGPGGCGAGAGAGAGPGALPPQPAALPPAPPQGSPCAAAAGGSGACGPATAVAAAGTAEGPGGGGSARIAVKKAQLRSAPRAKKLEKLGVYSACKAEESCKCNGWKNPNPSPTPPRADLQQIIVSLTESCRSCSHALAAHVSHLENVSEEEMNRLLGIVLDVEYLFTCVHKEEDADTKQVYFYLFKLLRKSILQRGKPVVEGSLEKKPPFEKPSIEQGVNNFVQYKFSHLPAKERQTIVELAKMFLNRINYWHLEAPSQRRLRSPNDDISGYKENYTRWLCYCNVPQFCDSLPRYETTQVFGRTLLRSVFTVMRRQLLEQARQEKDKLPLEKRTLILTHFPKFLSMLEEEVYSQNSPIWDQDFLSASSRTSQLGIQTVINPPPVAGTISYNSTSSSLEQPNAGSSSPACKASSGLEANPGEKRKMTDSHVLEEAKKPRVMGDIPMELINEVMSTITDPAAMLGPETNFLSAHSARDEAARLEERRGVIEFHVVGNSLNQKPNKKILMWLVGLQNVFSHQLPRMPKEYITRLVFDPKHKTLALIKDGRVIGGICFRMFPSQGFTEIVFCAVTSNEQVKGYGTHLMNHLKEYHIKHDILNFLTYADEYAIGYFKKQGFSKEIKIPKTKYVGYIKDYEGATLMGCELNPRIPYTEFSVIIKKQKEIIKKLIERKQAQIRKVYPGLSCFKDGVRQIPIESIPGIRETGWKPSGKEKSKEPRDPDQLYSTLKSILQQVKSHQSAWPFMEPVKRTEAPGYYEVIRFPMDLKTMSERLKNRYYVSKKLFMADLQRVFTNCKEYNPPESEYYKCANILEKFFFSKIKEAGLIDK

Columns and labels:
[1] = target: transcription factor SP1 (Specificity Protein 1) (human (endogenous in human CCA cell lines)) (UniProt P08047); experiment: co-IP; CCA cell lysate (Pierce IP Lysis Buffer) immunoprecipitated with anti-SP1 or anti-YY1 antibody overnight at 4 °C, Protein A/G magnetic beads; washed with 50 mmol/L Tris-HCl pH 7.6, 150 mmol/L NaCl, 1 mmol/L EDTA, 0.1% NP-40; Western blotting for KAT2B; IgG as negative control
[2] = target: histone lysine acetyltransferase KAT2B (Lysine acetyltransferase 2B) (human (in human CCA cell lines)) (UniProt Q92831); experiment: co-IP; CCA cell lysate (Pierce IP Lysis Buffer) immunoprecipitated with anti-KAT2B antibody overnight at 4 °C, Protein A/G magnetic beads; washed with 50 mmol/L Tris-HCl pH 7.6, 150 mmol/L NaCl, 1 mmol/L EDTA, 0.1% NP-40; Western blotting; IgG as negative control
[3] = target: recombinant glutathione S-transferase (GST)-SP1 fusion protein (UniProt P08047); experiment: pull-down; GST-SP1 or GST held on Glutathione Agarose (Pierce GST Protein Interaction Pull-Down Kit), incubated with FLAG-tagged KAT2B recombinant protein at 4 °C for 2 h; eight washes with 1:1 TBS: Pull-Down Lysis Buffer; Western blotting; both purified

binding [1]: binds
Substance: histone lysine acetyltransferase KAT2B (Lysine acetyltransferase 2B) (from UniProt Q92831 1-832)

binding [2]: binds
Substance: transcription factor SP1 (Specificity Protein 1) (from UniProt P08047 1-785)

binding [3]: binds
Substance: Recombinant KAT2B-Flag protein (from UniProt Q92831 1-832)
